In PMC5582869:
Results are given in words; binding and its absence hold for the method and conditions named. Binding seen in cells or lysates may run through a third protein. Binding can be weak; no strength is given. Where a sequence is shown, tags or fusion partners need not be part of it.

Biological target: T1, human ZDHHC6 (WT), Myc-tagged (human) (UniProt Q9H6R6)
T1 sequence: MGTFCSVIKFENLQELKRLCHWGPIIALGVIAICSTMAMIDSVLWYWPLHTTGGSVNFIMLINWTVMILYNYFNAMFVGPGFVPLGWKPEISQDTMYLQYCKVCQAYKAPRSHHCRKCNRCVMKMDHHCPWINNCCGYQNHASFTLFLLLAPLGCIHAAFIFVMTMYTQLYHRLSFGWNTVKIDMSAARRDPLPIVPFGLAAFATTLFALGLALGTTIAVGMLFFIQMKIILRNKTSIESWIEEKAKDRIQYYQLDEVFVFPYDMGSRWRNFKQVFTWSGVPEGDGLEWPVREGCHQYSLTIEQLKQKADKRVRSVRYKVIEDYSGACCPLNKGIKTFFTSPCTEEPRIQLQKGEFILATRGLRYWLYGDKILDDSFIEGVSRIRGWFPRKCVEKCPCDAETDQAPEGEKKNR
Test: co-IP; HeLa co-transfected with myc-DHHC6 and flag-tagged DHHC16 for 24 hr; immunoprecipitated with myc or flag antibodies, immunoblot with anti-myc or anti-flag; lysis in 0.5% Nonidet P-40, 500 mM Tris pH 7.4, 20 mM EDTA, 4°C

- binding: binds
Substance: human FLAG-ZDHHC16 (enzyme)
